We go through one substance from paper PMC8158962, “Modulation of fungal virulence through CRZ1 regulated F-BAR-dependent actin remodeling and endocytosis in chickpea infecting phytopathogen Ascochyta rabiei”.

Protein sequences, listed by entry. Tags and fused reporters are not part of them. Lines headed by an entry give the natural chain unless they say otherwise; changes in a name come on top.
UniProt A0A162ZXY0: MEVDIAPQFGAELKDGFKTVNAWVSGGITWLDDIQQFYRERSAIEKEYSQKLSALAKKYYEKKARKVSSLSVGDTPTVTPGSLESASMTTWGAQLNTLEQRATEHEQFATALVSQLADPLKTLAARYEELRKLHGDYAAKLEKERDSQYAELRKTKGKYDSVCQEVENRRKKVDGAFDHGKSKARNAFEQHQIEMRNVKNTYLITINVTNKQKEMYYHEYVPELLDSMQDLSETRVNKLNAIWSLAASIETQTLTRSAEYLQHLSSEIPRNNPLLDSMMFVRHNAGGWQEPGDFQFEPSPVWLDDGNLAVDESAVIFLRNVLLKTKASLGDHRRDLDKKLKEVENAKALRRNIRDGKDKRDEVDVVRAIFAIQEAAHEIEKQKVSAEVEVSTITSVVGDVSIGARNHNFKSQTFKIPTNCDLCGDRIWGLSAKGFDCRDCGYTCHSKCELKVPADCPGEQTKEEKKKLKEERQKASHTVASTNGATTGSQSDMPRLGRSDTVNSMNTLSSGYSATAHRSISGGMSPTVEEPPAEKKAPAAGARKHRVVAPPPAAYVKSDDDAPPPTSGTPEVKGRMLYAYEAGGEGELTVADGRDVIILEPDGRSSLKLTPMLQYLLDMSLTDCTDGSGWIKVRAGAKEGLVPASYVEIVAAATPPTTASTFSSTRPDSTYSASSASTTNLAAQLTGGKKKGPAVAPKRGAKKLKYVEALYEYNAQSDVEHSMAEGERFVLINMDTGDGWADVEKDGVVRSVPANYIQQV

The target of this assay is ArWASp (Wiskott-Aldrich syndrome protein of Ascochyta rabiei) (Ascochyta rabiei). In words: two-hybrid; split-ubiquitin based DUALhunter system in yeast cytoplasm, strain NMY51, vectors pGDHB1 and pGPR3-N; growth on QDO (SD/-L/-W/-A/-H) against DDO (SD/-L/-W), X-gal overlay for the self-interaction; photographed after 48 h.

These are yes or no findings as the source states them, for the method shown. A result given as binding can be weak or reduced; the word gives no strength.

“ArF-BAR (F-BAR domain-containing protein of Ascochyta rabiei) (from UniProt A0A162ZXY0)”: the binding entry is reported as “binds”.
